Assay results from the M2OR odorant receptor database.
The entries are a selection whose mix differs from that of the whole data set. The calls were merged from several studies; some rest on single wells. The list shows a part of the results.

Chains of the proteins cited; added tags and fusions are not shown. A change or cut given only in a name is not applied to a line headed by its entry. Chains listed by the source or under a name are the forms on record and can include a tag or linker.
UniProt Q8NGB6: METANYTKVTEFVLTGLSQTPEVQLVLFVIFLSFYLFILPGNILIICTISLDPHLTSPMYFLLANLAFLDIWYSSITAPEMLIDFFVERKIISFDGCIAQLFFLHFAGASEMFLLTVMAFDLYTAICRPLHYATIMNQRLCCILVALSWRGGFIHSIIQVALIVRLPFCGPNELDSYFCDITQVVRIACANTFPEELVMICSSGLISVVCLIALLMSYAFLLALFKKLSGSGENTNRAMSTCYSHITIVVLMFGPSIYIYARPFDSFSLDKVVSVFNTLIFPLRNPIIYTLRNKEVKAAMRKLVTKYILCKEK
OR4N2, as listed by the source: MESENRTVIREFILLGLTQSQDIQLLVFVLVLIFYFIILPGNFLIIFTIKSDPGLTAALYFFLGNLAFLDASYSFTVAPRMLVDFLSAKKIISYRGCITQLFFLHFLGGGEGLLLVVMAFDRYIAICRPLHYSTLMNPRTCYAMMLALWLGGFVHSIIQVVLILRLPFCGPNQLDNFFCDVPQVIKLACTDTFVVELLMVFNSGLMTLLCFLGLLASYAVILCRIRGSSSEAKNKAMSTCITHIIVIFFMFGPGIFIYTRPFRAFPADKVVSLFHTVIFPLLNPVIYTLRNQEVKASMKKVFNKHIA

Experiments:
Settings in all cases: stereoisomer not certain
OR4K3 = test system: T1, OR4K3
T1 sequence (whole entry): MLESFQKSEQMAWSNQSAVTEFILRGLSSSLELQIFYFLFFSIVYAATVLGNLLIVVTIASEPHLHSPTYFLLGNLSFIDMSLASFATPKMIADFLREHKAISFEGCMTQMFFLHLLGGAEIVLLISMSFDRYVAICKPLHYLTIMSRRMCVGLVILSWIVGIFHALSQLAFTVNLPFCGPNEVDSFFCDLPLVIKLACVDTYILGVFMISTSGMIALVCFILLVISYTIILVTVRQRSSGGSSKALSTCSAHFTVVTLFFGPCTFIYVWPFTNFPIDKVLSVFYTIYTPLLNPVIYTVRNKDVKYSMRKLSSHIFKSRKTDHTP
How it was run: (§1)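 Whether a receptor–molecule pair is responsive (active) rests on the original authors' judgment that its measured signal was statistically different from baseline. Pairs without that judgment are non-responsive (inactive). Sources used varied assay methods, commonly transient luciferase assays in mammalian cell lines.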

OR4K5 (Homo sapiens) = target: T2, OR4K5 (Homo sapiens) (UniProt Q8NGD3)
T2 sequence (whole entry): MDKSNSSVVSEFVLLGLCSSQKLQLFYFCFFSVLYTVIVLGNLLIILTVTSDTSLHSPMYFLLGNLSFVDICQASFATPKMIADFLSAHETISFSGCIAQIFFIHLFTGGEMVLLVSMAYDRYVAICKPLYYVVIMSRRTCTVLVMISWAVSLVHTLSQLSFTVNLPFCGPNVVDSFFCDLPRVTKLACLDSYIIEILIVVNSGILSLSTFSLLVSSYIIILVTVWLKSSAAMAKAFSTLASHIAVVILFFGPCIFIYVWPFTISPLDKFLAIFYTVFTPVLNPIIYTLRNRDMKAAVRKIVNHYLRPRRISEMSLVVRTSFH
How it was run: as §1

OR4KF = test system: T3, OR4KF
T3 sequence (whole entry): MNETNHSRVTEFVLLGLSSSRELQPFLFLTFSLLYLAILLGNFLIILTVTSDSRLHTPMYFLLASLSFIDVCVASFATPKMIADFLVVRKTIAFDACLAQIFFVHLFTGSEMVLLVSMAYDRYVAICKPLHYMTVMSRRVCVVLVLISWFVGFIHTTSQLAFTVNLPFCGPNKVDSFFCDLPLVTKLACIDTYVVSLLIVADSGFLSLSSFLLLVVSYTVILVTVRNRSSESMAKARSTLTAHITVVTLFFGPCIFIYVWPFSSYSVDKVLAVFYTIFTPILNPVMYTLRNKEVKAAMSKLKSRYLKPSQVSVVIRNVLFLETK
How it was run: as §1

OR4KH = test system: T4, OR4KH
T4 sequence (whole entry): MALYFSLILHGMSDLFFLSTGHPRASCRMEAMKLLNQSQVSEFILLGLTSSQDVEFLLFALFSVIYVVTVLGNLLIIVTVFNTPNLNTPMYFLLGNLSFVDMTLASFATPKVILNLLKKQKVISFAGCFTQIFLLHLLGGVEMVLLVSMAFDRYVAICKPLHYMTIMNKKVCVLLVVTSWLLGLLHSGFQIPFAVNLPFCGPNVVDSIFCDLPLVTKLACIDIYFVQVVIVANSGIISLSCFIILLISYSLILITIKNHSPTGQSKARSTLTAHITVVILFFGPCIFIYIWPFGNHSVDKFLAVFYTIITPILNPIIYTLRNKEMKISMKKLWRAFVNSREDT
How it was run: as §1

OR4L1 = test system: T5, OR4L1
T5 sequence (whole entry): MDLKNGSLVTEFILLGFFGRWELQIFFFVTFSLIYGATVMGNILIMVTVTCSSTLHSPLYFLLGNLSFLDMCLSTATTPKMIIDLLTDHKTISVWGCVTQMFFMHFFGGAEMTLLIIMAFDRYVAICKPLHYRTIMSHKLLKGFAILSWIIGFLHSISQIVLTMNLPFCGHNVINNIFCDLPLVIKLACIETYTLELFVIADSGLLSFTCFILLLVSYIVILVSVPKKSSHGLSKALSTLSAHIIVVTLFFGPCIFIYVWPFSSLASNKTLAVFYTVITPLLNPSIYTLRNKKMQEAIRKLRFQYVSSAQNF
How it was run: as §1

OR4M1 (Homo sapiens) = target: T6, OR4M1 (Homo sapiens) (UniProt Q8NGD0)
T6 sequence (whole entry): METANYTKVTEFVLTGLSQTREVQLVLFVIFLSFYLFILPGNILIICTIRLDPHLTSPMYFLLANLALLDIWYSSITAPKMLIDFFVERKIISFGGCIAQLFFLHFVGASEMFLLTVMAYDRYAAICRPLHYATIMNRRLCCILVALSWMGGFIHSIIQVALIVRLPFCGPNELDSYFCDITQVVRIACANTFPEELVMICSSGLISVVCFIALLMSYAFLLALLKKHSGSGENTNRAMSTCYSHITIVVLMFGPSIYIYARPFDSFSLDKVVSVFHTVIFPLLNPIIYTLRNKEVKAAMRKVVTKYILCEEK
How it was run: as §1

OR4N2 (Homo sapiens) = target: T7, OR4N2 (Homo sapiens) (UniProt Q8NGD1)
T7 sequence (whole entry): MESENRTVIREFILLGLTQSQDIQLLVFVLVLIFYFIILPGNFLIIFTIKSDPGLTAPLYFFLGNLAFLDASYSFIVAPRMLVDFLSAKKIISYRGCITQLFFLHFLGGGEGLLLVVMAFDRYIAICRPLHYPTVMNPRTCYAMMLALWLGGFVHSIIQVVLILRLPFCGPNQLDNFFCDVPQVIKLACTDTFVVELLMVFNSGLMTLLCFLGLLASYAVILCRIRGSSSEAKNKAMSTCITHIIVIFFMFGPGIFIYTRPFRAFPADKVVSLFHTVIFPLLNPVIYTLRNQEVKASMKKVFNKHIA
How it was run: as §1

OR4L1 (Homo sapiens) = OR4L1 (Homo sapiens) (UniProt Q8NH43)
How it was run: as §1

OR4M2 (Homo sapiens) = OR4M2 (Homo sapiens) (UniProt Q8NGB6)
How it was run: as §1

OR4N2 = test system: OR4N2
How it was run: as §1
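Also: active if original authors judged signal statistically different from baseline.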

Structure (SMILES)	odorant receptor agonist call (OR4K3)	odorant receptor agonist call (OR4K5 (Homo sapiens))	odorant receptor agonist call (OR4KF)	odorant receptor agonist call (OR4KH)	odorant receptor agonist call (OR4L1)	odorant receptor agonist call (OR4M1 (Homo sapiens))	odorant receptor agonist call (OR4N2 (Homo sapiens))	odorant receptor agonist call (OR4L1 (Homo sapiens))	odorant receptor agonist call (OR4M2 (Homo sapiens))	odorant receptor agonist call (OR4N2)
CCCCCCCC=CC=O	inactive	inactive	inactive	inactive	inactive	inactive	inactive			
CCC1(O)C2(C)CCC(C2)C1(C)C (stereo not given)	inactive	inactive	inactive	inactive	inactive	inactive	inactive			
CC1COCc2cc3c(cc21)C(C)(C)C(C)C3(C)C (stereo not given)	active	active	inactive	active	inactive	inactive	active			
CC(C)C=O	inactive	inactive	inactive	inactive	inactive	inactive	inactive			
COc1cc(C)ccc1O	inactive	inactive	inactive	inactive	inactive	inactive	inactive			
CC12C=CCC1C1CCC3CC(=O)CCC3(C)C1CC2 (stereo not given)	inactive	inactive	inactive	inactive	inactive	inactive	inactive	inactive	inactive	
CC12CCC(CC1)C(C)(C)O2	inactive	inactive	inactive	inactive	inactive	inactive	inactive			
CC1=CCC(C(C)(C)O)CC1 (stereo not given)	inactive	inactive	inactive	inactive	inactive	inactive	inactive			
CCCCCCOC(=O)CCC	inactive	inactive	inactive	inactive	inactive	inactive	inactive			
O=C1CCCCCCCCCCCCCCO1	inactive	inactive	inactive	inactive	inactive	inactive	inactive			
CCCCCC(=O)O	inactive	inactive	inactive	inactive	inactive	inactive	inactive			
CC(C)(C)c1ccc(CCC=O)cc1	inactive	inactive	inactive	inactive	inactive	inactive	inactive			
CC(C)=CCCC(C)=CC=O	inactive	inactive	inactive	inactive	inactive	inactive	inactive			
CC(C)C(=O)O	inactive	inactive	inactive	inactive	inactive	inactive	inactive			
O=CCc1ccccc1	inactive	inactive	active	inactive	inactive	active	active			
CC(C)CC(=O)O	inactive	inactive	inactive	inactive	inactive	inactive	inactive			
CC12C=CCC1C1CCC3=CC(=O)CCC3(C)C1CC2 (stereo not given)	inactive	inactive	inactive	inactive	inactive	inactive	inactive			
C=CC(C)(O)CCC=C(C)C (stereo not given)	inactive	inactive	inactive	inactive	inactive	inactive	inactive			
C=CCSCC=C	inactive	inactive	active	inactive	inactive	inactive	inactive			
CCCCCCCCCC=O	inactive	inactive	active	inactive	inactive	inactive	inactive			
CC12CCC(C1)C(C)(C)C2=O (stereo not given)	inactive	inactive	inactive	inactive	inactive	inactive	inactive			
CC(=O)OCC=C(C)CCC=C(C)C	inactive	inactive	active	inactive	active	active	inactive			
O=C1CCCCCCCCCCCC(=O)OCCO1	inactive	inactive	inactive	inactive	inactive	active	inactive			
c1ccc(Oc2ccccc2)cc1	inactive	inactive	inactive	inactive	inactive	inactive	inactive			
CCCCCCCCCCC=O	inactive	inactive	active	inactive	inactive	inactive	inactive			
CCC=CCCO	inactive	inactive	inactive	inactive	inactive	inactive	inactive			

3 records drawn at random from the list so far:
Structure (SMILES)	odorant receptor agonist call (OR4K3)	odorant receptor agonist call (OR4K5 (Homo sapiens))	odorant receptor agonist call (OR4KF)	odorant receptor agonist call (OR4KH)	odorant receptor agonist call (OR4L1)	odorant receptor agonist call (OR4M1 (Homo sapiens))	odorant receptor agonist call (OR4N2 (Homo sapiens))	odorant receptor agonist call (OR4L1 (Homo sapiens))	odorant receptor agonist call (OR4M2 (Homo sapiens))	odorant receptor agonist call (OR4N2)
CC(C)C(=O)O	inactive	inactive	inactive	inactive	inactive	inactive	inactive			
C=CC(C)(O)CCC=C(C)C (stereo not given)	inactive	inactive	inactive	inactive	inactive	inactive	inactive			
c1ccc(Oc2ccccc2)cc1	inactive	inactive	inactive	inactive	inactive	inactive	inactive			

Going on with the list:

Structure (SMILES)	odorant receptor agonist call (OR4K3)	odorant receptor agonist call (OR4K5 (Homo sapiens))	odorant receptor agonist call (OR4KF)	odorant receptor agonist call (OR4KH)	odorant receptor agonist call (OR4L1)	odorant receptor agonist call (OR4M1 (Homo sapiens))	odorant receptor agonist call (OR4N2 (Homo sapiens))	odorant receptor agonist call (OR4L1 (Homo sapiens))	odorant receptor agonist call (OR4M2 (Homo sapiens))	odorant receptor agonist call (OR4N2)
CC=Cc1ccc(O)c(OC)c1	inactive	inactive	active	inactive	inactive	inactive	inactive			
CCCCCC(C)=O	inactive	active		inactive	inactive		inactive			
CCCCCCCOC(C)=O	inactive	inactive	inactive	inactive	inactive	inactive	inactive			
O=C1CCCCC1	inactive	inactive		inactive	inactive		inactive			
C=CCc1ccc(OC)c(OC)c1	inactive	inactive	inactive	inactive	inactive	inactive	inactive			inactive
COC(=O)c1ccccc1O	inactive	inactive	inactive	inactive	inactive	inactive	inactive			
CC(C)CCC(=O)O	inactive	inactive	inactive	inactive	inactive	inactive	inactive			
COc1cc(C=O)ccc1O	inactive	inactive	inactive	inactive	inactive	inactive	inactive			
C=C(C)C1CCC2=CC(=O)CC(C)C2(C)C1 (stereo not given)			active			inactive				
CC(=O)c1ccccc1	active	inactive		inactive	inactive		active			
CCCCCOC(C)=O	inactive	inactive	inactive	inactive	inactive	inactive	inactive			
CC(=O)C(C)=O	inactive	inactive	active	inactive	inactive	inactive	inactive			
CC(=O)OC1CC2CCC1(C)C2(C)C (stereo not given)	inactive	inactive	inactive	inactive	inactive	inactive	inactive			
CC1=NC(C)SC1C (stereo not given)	inactive	inactive		inactive	inactive		inactive			
CC1CCC(C(C)C)C(O)C1 (stereo not given)	inactive	inactive	active	inactive	inactive	active	inactive			
CCCCCCCCOC(C)=O	inactive	inactive	inactive	inactive	inactive	inactive	inactive			
COC(=O)c1ccccc1	inactive	active		inactive	inactive		inactive			
CCCCO	inactive	inactive	inactive	inactive	inactive	inactive	inactive			
CC(=O)OC(C)(C)C1CC=C(C)CC1 (stereo not given)	inactive	inactive	active	inactive	inactive	inactive	inactive			
CCCCCCCC=O	inactive	inactive	inactive	inactive	inactive	inactive	inactive			
COc1ccccc1O	inactive	inactive	inactive	inactive	inactive	inactive	inactive			
c1cnccn1	inactive	inactive	active	inactive	inactive	inactive	inactive			
CCCC(=O)O	inactive	inactive	inactive	inactive	inactive	inactive	inactive			
CC(C)(O)CCCC1=CCC(C=O)CC1 (stereo not given)			inactive			inactive				
C=CCc1ccc(OC(C)=O)c(OC)c1	inactive	inactive	active	inactive	inactive	active	inactive			
